Binding data for 3 substances are collected here from publication PMC10068952.

The chains behind the UniProt entries cited, without tags or fusion partners.
UniProt Q8VI36: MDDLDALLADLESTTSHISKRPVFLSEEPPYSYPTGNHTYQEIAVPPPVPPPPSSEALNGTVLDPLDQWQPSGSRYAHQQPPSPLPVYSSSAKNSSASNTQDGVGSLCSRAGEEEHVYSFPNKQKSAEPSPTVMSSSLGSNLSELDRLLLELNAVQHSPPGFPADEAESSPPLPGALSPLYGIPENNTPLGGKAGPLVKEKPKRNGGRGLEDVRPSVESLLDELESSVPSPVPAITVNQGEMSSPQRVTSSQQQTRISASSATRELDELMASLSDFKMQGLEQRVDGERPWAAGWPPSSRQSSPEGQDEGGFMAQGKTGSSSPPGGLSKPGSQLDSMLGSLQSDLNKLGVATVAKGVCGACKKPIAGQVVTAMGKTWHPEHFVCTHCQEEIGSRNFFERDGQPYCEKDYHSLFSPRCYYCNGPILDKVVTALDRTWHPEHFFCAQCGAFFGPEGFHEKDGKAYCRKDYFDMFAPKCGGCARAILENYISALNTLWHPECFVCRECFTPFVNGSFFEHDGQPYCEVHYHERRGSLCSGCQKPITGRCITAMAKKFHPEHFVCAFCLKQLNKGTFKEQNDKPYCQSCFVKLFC
UniProt P49023: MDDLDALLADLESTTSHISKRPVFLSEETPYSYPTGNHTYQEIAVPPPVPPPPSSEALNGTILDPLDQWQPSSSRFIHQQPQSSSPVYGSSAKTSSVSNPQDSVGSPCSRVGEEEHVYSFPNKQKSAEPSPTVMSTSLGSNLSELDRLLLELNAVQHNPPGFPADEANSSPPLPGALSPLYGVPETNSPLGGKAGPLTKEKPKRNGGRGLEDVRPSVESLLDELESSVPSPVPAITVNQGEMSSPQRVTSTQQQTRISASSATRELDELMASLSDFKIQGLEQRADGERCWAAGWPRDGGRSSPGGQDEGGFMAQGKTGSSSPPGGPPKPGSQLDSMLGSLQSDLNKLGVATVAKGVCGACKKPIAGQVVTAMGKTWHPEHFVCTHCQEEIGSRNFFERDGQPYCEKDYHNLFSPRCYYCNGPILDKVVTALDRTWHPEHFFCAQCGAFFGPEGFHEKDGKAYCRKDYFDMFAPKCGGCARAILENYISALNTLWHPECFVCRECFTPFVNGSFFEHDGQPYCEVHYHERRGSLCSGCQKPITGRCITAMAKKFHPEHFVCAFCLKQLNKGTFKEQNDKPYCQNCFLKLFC
UniProt Q9H2G2: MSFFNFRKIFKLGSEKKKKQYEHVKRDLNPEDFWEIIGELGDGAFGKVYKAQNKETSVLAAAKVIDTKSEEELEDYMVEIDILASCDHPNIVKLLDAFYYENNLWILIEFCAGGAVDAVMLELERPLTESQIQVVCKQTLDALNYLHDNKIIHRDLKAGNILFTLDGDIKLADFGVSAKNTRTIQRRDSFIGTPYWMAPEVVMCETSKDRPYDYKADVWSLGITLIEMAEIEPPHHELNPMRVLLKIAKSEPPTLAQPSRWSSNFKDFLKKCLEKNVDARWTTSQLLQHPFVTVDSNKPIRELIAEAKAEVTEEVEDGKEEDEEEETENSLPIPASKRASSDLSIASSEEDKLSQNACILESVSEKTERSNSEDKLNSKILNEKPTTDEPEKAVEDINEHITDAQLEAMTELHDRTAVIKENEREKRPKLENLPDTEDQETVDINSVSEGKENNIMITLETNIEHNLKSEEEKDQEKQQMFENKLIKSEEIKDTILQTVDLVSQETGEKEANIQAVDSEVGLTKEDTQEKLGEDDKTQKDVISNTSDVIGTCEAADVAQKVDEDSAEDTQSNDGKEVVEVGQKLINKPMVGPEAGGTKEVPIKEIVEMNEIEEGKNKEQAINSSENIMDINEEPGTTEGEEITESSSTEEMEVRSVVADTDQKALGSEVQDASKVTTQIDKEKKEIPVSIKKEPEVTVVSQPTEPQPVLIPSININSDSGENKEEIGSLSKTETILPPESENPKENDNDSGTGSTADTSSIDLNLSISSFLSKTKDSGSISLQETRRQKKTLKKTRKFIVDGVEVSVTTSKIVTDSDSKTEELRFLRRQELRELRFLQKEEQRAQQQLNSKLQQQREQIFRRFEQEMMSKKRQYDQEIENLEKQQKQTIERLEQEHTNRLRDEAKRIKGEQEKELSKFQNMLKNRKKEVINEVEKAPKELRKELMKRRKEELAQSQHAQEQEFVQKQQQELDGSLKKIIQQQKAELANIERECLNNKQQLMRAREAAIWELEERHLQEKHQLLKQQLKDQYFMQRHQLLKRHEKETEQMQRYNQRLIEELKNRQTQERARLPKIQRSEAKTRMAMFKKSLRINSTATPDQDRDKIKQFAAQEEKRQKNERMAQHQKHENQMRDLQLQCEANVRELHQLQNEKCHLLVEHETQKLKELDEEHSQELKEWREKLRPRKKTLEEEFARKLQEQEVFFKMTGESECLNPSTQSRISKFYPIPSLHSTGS
UniProt O54988: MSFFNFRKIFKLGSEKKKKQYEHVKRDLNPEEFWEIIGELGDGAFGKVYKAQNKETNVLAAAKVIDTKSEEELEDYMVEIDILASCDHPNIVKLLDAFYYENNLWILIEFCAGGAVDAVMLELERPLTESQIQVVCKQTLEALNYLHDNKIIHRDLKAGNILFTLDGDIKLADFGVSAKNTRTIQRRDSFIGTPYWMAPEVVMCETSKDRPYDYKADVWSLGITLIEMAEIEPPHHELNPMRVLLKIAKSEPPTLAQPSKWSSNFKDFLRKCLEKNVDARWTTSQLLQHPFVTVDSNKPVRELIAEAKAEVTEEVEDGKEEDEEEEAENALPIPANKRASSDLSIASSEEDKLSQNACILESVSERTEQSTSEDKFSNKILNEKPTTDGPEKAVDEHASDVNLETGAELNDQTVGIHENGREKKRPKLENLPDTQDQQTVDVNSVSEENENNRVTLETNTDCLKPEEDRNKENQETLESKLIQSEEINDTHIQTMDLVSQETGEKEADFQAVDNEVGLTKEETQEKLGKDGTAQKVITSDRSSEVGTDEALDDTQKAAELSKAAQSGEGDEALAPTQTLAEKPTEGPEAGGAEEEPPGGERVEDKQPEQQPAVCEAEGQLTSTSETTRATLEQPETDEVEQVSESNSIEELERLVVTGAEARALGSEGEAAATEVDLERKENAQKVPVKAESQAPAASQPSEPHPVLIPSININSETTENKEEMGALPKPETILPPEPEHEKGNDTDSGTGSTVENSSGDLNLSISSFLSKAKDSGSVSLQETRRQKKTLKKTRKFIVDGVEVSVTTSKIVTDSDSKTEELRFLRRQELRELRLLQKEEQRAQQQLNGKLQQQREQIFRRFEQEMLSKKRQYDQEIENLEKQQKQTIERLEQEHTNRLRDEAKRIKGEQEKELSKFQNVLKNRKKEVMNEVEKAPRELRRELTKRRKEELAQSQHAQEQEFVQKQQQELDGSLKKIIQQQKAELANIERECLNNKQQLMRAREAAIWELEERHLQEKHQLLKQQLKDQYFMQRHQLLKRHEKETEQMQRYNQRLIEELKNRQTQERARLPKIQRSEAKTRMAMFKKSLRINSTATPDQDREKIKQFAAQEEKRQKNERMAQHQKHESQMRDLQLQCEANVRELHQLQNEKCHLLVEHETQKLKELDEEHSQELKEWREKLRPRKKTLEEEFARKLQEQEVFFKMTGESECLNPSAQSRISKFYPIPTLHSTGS

No constants are given. Whether binding was seen depends on the method and setting. Binding seen in cells or lysates may run through a third protein. Some binding calls cover weakened binding; strength is not graded here.

The target in assay [1] is paxillin (mouse (endogenous in mouse oocytes)) (UniProt Q8VI36). Nature of the assay: proximity ligation; Duolink In situ Red Starter Kit Mouse/Rabbit on fixed, permeabilised mouse oocytes; rabbit anti-SLK and mouse anti-paxillin antibodies overnight at 4°C; anti-rabbit plus and anti-mouse minus probes at 37°C.
For assay [2], the target named is paxillin (human (endogenous in HEK-293T)) (UniProt P49023). The assay can be described thus: co-IP; HEK 293T cell lysates incubated with IgG/anti-SLK antibody or IgG/anti-paxillin antibody (500 μg protein, 2 μg antibody, 12 h at 4°C, protein G agarose); lysis buffer 50 mM Tris-HCl pH 7.5, 150 mM NaCl, 0.3% Nonidet P-40, 2 mM EDTA; eluates blotted with anti-SLK and anti-paxillin.

The target of assay [3] is Ste20‐like kinase (SLK) (human (endogenous in HEK-293T)) (UniProt Q9H2G2). The assay is described as above.

Turning to “Ste20‐like kinase (SLK) (from UniProt O54988 1-1233)”, the binding entry in assay [1] is recorded as “binds”.

Take “Ste20‐like kinase (SLK) (from UniProt Q9H2G2 1-1235)”: the binding result in assay [2] was “binds”.

With paxillin (from UniProt P49023 1-591), in assay [3], the binding entry is “binds”.
